PubChem BioAssay AID504774 – Drosophila RNAi Screening Center | 2011
In all, the deposit lists about 23,000 reagents; shown is an unselected part of those with a known target gene and a result. 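Values are quantile-normalised luminescence on an arbitrary scale; higher means more cells surviving MMS.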 Further read-outs or replicates are left out here.

- Aim: 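Knock-downs that shift viability of MMS-exposed cells relative to untreated ones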 (primary screen)
- System: Drosophila Kc167 cells
- Reagents: long dsRNA against Drosophila genes, about 0.25 µg dsRNA per well
- Time to read-out: about 6 days: 3 days knock-down, then 3 days with or without MMS
- Challenge: methyl methanesulphonate 0.004% (w/v) for 3 days after knock-down
- Read-out: 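Viability in wells given MMS, read as ATP luminescence, normalised by quantiles plate by plate and averaged across replicates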
- Reading the numbers: mean viability with MMS: higher = more surviving cells after MMS

Ask1 [DRSC16789]
- mean viability with MMS: 3.48e6

Ask1 [DRSC21697]
- mean viability with MMS: 3.37e6

CG10300 [DRSC14225]
- mean viability with MMS: 3.60e6

CG33630 [DRSC14546]
- mean viability with MMS: 3.49e6

Vps39 [DRSC16205]
- mean viability with MMS: 3.44e6

CG10934 [DRSC06017]
- mean viability with MMS: 3.59e6

Daao1 [DRSC06131]
- mean viability with MMS: 3.49e6

Orct2 [DRSC14613]
- mean viability with MMS: 3.52e6

Col4a1 [DRSC03291]
- mean viability with MMS: 3.69e6

opm [DRSC20141]
- mean viability with MMS: 3.17e6

opm [DRSC22135]
- mean viability with MMS: 3.13e6

Syb [DRSC07559]
- mean viability with MMS: 3.52e6

AspRS [DRSC05914]
- mean viability with MMS: 3.41e6

CG13051 [DRSC09932]
- mean viability with MMS: 3.51e6

CG6621 [DRSC16076]
- mean viability with MMS: 3.52e6

pcx [DRSC18186]
- mean viability with MMS: 3.44e6

pcx [DRSC18187]
- mean viability with MMS: 3.39e6

pcx [DRSC18188]
- mean viability with MMS: 3.41e6

pcx [DRSC18189]
- mean viability with MMS: 3.45e6

pcx [DRSC18190]
- mean viability with MMS: 3.39e6

pcx [DRSC18816]
- mean viability with MMS: 3.56e6

CG30001 [DRSC05191]
- mean viability with MMS: 3.46e6

Individual results from the entries so far.
For “mean viability with MMS”, CG33630 [DRSC14546] has 3.49e6
CG13051 [DRSC09932], mean viability with MMS: 3.51e6
pcx [DRSC18190], mean viability with MMS → 3.39e6
pcx [DRSC18188], mean viability with MMS = 3.41e6

Further entries follow.
aus [DRSC13471]
- mean viability with MMS: 3.48e6

aus [DRSC13473]
- mean viability with MMS: 3.62e6

aus [DRSC15157]
- mean viability with MMS: 3.30e6

CG18641 [DRSC00527]
- mean viability with MMS: 3.43e6

CG10801 [DRSC17761]
- mean viability with MMS: 3.44e6

CG5866 [DRSC15900]
- mean viability with MMS: 3.59e6

smal [DRSC02318]
- mean viability with MMS: 3.51e6

smal [DRSC02319]
- mean viability with MMS: 3.37e6

smal [DRSC02320]
- mean viability with MMS: 3.57e6

smal [DRSC02504]
- mean viability with MMS: 3.57e6

smal [DRSC22866]
- mean viability with MMS: 3.29e6

Df31 [DRSC03738]
- mean viability with MMS: 3.60e6

Df31 [DRSC22163]
- mean viability with MMS: 3.68e6

Zpr1 [DRSC18432]
- mean viability with MMS: 2.99e6

PLCXD [DRSC02427]
- mean viability with MMS: 3.71e6

Peritrophin-A [DRSC20570]
- mean viability with MMS: 3.56e6

vig2 [DRSC14402]
- mean viability with MMS: 3.41e6

sei [DRSC04713]
- mean viability with MMS: 3.55e6

Or43a [DRSC07485]
- mean viability with MMS: 3.47e6

CG32572 [DRSC19525]
- mean viability with MMS: 3.58e6

CG32572 [DRSC19526]
- mean viability with MMS: 3.56e6

CG31955 [DRSC00285]
- mean viability with MMS: 3.55e6

Tsp47F [DRSC07325]
- mean viability with MMS: 3.41e6
